Experimental findings from patent US20070037246A1 are described below.

Assay [1] concerns the target 6xHis-CTHS-GFP fusion protein (yeast (SUMO/Smt3 part)). Description: pull-down from E. coli soluble proteins on protein-coupled resin, SDS-PAGE, Coomassie.
Assay [2] shares this target. As to the kind of experiment: pull-down from E. coli soluble proteins on Cys-6xHis-NTHS Sulfo-link resin, SDS-PAGE, Coomassie.

Results are given in words; binding and its absence hold for the method and conditions named. In cells and extracts the contact can be indirect. Some entries that bind do so weakly or less than the wild type. Tags and fused reporters may be left off the sequences shown.

B1: Cys-6xHis-NTHS protein (protein)
chain: MGCHHHHHHGSDSEVNQEAKPEVKPEVKPETHINLKVSDGSSEIFFKIKKTTPLRRLMEAFAK
modifications: coupled through the engineered N-terminal cysteine to Sulfo-link resin
As to B1, the binding entry in assay [1] and in assay [2] was “binds” throughout.
